Results are given in words; binding and its absence hold for the method and conditions named. Binding seen in cells or lysates may run through a third protein. Some results given as binding are weak or reduced against the parent protein; the word gives no strength.
Biological target: T1, carbamoylphosphate synthetase (CPS1) (mouse (endogenous in mouse liver)) (UniProt Q8C196)
T1 sequence: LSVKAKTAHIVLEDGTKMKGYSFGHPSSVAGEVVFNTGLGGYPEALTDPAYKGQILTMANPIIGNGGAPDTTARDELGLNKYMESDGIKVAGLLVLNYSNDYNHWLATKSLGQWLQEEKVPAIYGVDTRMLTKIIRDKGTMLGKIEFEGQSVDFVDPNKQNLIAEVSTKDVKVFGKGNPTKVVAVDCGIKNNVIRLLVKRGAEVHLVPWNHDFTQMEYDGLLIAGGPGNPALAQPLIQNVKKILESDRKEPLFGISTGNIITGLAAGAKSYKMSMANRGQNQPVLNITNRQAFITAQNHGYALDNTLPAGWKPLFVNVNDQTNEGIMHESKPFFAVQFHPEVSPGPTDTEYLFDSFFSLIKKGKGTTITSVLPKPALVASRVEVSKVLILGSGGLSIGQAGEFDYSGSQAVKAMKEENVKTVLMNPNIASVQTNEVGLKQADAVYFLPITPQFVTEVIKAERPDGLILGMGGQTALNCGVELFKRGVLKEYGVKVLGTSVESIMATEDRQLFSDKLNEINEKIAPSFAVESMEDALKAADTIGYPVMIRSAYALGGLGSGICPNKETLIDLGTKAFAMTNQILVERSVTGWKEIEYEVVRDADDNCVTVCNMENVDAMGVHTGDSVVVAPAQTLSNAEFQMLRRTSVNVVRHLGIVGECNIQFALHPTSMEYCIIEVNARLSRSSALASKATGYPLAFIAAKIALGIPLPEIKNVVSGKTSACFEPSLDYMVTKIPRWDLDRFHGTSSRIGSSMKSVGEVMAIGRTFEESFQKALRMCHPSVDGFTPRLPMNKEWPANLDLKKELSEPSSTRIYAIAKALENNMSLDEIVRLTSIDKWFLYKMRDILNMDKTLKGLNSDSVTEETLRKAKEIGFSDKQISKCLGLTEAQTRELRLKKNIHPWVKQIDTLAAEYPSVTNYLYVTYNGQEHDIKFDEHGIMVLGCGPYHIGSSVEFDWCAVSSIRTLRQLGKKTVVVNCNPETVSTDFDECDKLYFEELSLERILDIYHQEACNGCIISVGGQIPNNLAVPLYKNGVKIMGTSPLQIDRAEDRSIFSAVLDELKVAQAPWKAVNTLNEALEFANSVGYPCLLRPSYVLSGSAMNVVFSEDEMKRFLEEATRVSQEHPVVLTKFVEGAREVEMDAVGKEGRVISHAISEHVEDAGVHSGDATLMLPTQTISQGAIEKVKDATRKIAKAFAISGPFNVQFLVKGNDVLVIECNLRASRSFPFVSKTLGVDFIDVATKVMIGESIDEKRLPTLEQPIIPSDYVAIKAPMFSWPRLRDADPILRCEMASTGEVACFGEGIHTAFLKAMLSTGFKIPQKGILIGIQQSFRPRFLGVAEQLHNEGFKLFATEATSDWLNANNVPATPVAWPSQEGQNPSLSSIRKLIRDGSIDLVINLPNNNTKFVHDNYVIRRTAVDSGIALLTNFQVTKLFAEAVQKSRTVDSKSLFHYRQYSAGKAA
Experiment: co-IP; reverse Co-IP with a CPS1 antibody from liver lysates of female WT and FMO3-/- mice; blot for FMO3; no-antibody control

B1: flavin-containing monooxygenase 3 (FMO3) (protein, UniProt P97501 1-534)
chain: MKKKVAIIGAGVSGLAAIRSCLEEGLEPTCFERSDDVGGLWKFSDHIEEGRASIYQSVFTNSSKEMMCFPDFPYPDDFPNFMHHSKLQEYITSFAKEKNLLKYIQFETPVTSINKCPNFSTTGKWEVTTEKHGKKETAVFDATMICSGHHIFPHVPKDSFPGLNRFKGKCFHSRDYKEPGIWKGKRVLVIGLGNSGCDIAAELSHVAQKVTISSRSGSWVMSRVWDDGYPWDMVVLTRFQTFLKNNLPTAISDWWYTRQMNARFKHENYGLVPLNRTLRKEPVFNDELPARILCGMVTIKPNVKEFTETSAVFEDGTMFEAIDCVIFATGYGYAYPFLDDSIIKSRNNEVTLYKGVFPPQLEKPTMAVIGLVQSLGATIPITDLQARWAAQVIKGTCTLPSVNDMMDDIDEKMGEKFKWYGNSTTIQTDYIVYMDELASFIGAKPNLLWLFLKDPRLAVEVFFGPCSPYQFRLVGPGKWSGARNAILTQWDRSLKPMKTRVVSKVQKSCSHFYSRLLRLLAVPVLLIALFLVLI
- binding: binds weakly

— paper PMC8877285
